Measured values published in patent US10206936B2, “Oxidized lipids and treatment or prevention of fibrosis” (Vascular Biogenics Ltd., priority 2014, dated 2019).
For at least one compound, name, drawing or mass did not settle the structure.

What was measured:
MCP-1-induced signaling = MCP-1-induced signaling in THP-1 cells, western blot; format: cell-based, human; details: 20 min pretreatment, 50 ng/ml MCP1
[1] = system: human monocytes (THP-1 cell line); assay: SDF1-induced cell migration, THP-1 cell line; format: cell-based; details: trans-well, 2-4 hours
[2] = system: PGN (TLR2)-induced signaling; assay: PGN (TLR2)-induced signaling in THP-1 cells, western blot; format: cell-based, human; details: 20 min pretreatment, 20 μg/ml PGN 15 min
IL-12/23p40 = IL-12/23p40 expression in livers of NASH-induced mice, Q-PCR; format: in vivo; details: 4 mg/kg orally once daily Week 6 to Week 9, normalized to GAPDH
[3] = system: LPS (TLR4)-induced signaling; assay: LPS (TLR4)-induced signaling in human monocytes, western blot; format: cell-based; details: human primary monocytes (CD14+), 20 min pretreatment, 100 ng/ml LPS 15 min
[4] = system: human monocytes (primary CD14+); assay: Chemokine-induced cell migration trans-well assay, primary monocytes; format: cell-based; details: RANTES 100 ng/ml and MCP-1 50 ng/ml, 2-4 hours
[5] = system: LPS (TLR4)-stimulated Mo-derived DCs; assay: IL-12p40 secretion in LPS-stimulated Mo-derived DCs, ELISA; format: cell-based, human; details: 100 ng/ml LPS 24 hours
[6] = target: LPS binding by human monocytes (primary CD14+); assay: LPS binding inhibition assay (biotin-LPS, FACS); details: biotin-LPS 100 ng/ml, 4° C.
[7] = system: Pam3CSK4 (TLR2)-stimulated human monocytes (primary CD14+); assay: IL-12p40 secretion by Pam3CSK4-stimulated human monocytes, ELISA; format: cell-based; details: 1 hour pretreatment, 300 ng/ml Pam3CSK4 24 hour
[8] = system: LPS (TLR4)-stimulated Mo-derived DCs; assay: IL-6 secretion in LPS-stimulated Mo-derived DCs, ELISA; format: cell-based, human; details: 100 ng/ml LPS 24 hours
RANTES-induced signaling = RANTES-induced signaling in human monocytes, western blot; format: cell-based; details: human monocytes (primary CD14+), RANTES 100 ng/ml 15 minutes
[9] = system: LPS (TLR4)-stimulated human monocytes (primary CD14+); assay: IL-12p40 secretion by LPS-stimulated human monocytes, ELISA; format: cell-based; details: 1 hour pretreatment, 100 ng/ml LPS 24 hour

## CCCCCCCCCCCCCCCCOCC(COP(=O)([O-])OCC[N+](C)(C)C)OCCCCC(=O)O (stereo not drawn) [VB-201, 1-hexadecyl-2-(4′-carboxybutyl)-glycero-3-phosphocholine]
MCP-1-induced signaling
  formation of p-AKT and p-ERK induced by MCP-1: inhibits
[1]
  SDF1-induced migration of human monocytes: inhibits
[2]
  formation of p-IKK, p-ERK and p-p38 induced by PGN: inhibits
IL-12/23p40
  IL-12/23p40 expression in livers: significantly attenuated
[3]
  formation of p-IKK, p-ERK and p-p38 and p-AKT induced by LPS: inhibits
[4]
  chemokine-induced migration of human monocytes: inhibits
[5]
  IL-12p40 secretion: inhibits
[6]
  IC50 of inhibition of LPS binding to human monocytes: ~7 µg/mL
[7]
  secretion of IL-12p40, Pam3CSK4 (TLR2)-stimulated: inhibits
[8]
  IL-6 secretion: inhibits
RANTES-induced signaling
  formation of p-ERK induced by RANTES: inhibits
[9]
  secretion of IL-12p40, LPS (TLR4)-stimulated: inhibits
